Laboratory results reported in the supplement of paper PMC10849652.
The other results are listed elsewhere or left out.

Amino acid sequences for entries named in this document (tags omitted). A change or cut given only in a name is not applied to a line headed by its entry.
UniProt P09429: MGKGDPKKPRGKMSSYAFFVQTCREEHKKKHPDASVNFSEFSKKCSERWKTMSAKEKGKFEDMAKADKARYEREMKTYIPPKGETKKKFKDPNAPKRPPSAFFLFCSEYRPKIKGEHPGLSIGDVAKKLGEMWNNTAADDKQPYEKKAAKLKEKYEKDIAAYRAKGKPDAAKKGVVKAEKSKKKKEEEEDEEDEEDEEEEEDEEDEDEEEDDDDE
UniProt P07910: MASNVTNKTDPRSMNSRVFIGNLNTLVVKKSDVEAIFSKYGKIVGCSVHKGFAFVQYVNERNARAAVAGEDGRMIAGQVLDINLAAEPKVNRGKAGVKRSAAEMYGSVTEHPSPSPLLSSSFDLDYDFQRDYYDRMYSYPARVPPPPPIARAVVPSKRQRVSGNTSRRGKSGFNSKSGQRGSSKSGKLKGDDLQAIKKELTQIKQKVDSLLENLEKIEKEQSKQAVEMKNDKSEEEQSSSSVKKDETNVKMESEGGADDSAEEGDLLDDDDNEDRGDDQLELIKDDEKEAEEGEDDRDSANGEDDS
UniProt Q14103: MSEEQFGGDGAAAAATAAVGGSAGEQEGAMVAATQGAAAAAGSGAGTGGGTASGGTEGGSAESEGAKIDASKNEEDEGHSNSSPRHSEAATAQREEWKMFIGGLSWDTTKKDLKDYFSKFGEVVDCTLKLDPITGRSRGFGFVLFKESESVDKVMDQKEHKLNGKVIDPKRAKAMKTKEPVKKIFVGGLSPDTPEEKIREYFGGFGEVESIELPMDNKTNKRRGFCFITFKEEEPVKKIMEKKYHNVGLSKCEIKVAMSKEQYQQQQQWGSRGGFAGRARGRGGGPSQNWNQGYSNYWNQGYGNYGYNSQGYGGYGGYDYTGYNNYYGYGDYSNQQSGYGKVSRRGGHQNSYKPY
UniProt P11142, whole entry, looked up: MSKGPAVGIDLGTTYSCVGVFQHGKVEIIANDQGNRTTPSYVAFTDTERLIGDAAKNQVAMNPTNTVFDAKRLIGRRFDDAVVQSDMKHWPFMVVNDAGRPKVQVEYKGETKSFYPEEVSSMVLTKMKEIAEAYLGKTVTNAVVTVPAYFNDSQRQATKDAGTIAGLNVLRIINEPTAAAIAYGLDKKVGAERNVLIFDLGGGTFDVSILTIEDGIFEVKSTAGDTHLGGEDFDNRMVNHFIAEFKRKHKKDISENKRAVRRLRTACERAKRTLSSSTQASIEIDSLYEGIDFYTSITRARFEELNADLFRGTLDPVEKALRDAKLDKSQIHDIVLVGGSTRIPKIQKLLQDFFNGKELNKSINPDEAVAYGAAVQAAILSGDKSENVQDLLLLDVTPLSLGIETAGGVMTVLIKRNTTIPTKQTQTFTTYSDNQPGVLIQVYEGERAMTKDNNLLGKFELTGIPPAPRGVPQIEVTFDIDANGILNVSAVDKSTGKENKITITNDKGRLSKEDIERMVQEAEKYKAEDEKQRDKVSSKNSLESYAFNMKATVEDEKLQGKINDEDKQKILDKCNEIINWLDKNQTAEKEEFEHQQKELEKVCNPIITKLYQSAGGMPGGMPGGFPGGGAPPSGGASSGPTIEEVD
UniProt Q8WVV9: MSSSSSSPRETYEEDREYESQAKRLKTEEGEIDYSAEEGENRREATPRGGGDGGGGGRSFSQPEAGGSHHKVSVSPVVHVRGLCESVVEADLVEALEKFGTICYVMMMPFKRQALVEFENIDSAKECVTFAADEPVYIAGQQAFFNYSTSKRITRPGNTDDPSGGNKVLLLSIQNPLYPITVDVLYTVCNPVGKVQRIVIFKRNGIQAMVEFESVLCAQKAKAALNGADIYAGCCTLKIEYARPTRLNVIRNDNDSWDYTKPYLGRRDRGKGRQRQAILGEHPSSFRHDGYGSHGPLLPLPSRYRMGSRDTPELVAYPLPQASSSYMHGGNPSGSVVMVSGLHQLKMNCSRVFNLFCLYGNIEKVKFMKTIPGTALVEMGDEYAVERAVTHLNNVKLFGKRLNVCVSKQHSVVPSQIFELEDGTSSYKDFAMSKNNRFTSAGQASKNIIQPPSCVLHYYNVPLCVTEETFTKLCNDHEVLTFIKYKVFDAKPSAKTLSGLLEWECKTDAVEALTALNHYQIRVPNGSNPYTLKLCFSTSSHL
UniProt P26583: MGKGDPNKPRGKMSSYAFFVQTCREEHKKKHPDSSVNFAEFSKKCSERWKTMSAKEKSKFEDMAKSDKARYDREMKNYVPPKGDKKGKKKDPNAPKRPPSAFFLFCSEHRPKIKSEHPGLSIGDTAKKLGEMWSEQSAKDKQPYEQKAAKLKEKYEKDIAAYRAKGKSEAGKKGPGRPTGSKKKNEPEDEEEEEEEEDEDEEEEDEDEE
UniProt Q6YN16: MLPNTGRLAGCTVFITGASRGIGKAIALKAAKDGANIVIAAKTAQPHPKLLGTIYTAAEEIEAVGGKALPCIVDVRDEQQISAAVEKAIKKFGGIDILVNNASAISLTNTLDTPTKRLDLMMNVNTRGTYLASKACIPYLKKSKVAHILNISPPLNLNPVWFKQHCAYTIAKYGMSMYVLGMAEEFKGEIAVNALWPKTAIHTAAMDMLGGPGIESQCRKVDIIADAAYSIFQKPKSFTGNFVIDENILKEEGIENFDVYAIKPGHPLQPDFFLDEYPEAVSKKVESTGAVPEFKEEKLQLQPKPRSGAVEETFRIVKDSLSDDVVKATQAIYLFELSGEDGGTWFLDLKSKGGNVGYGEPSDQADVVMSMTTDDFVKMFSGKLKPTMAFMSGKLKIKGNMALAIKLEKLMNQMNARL
UniProt Q5SSJ5: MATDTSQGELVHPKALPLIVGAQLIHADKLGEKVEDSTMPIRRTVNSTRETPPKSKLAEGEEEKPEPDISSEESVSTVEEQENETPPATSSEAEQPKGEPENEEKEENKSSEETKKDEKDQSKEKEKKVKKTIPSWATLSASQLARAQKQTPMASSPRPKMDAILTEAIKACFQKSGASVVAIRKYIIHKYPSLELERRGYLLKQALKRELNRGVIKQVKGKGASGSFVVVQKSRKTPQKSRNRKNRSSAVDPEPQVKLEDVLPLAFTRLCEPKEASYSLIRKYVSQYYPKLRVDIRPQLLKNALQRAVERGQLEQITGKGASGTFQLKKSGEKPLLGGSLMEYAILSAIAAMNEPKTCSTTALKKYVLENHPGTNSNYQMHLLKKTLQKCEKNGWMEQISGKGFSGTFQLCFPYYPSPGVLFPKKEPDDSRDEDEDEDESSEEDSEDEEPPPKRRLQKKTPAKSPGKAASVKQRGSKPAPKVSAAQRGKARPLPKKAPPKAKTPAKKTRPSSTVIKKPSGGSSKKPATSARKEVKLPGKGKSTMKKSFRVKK
UniProt Q92506: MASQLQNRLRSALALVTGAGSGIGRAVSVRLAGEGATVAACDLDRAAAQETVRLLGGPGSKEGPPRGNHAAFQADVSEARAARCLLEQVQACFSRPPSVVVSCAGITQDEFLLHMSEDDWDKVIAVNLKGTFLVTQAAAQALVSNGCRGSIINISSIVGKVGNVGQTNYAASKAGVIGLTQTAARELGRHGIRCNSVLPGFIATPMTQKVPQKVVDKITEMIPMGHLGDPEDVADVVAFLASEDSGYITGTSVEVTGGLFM
UniProt Q15651: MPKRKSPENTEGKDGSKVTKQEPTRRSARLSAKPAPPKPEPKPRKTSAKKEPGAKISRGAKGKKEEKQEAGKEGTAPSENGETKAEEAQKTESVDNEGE
UniProt P05362: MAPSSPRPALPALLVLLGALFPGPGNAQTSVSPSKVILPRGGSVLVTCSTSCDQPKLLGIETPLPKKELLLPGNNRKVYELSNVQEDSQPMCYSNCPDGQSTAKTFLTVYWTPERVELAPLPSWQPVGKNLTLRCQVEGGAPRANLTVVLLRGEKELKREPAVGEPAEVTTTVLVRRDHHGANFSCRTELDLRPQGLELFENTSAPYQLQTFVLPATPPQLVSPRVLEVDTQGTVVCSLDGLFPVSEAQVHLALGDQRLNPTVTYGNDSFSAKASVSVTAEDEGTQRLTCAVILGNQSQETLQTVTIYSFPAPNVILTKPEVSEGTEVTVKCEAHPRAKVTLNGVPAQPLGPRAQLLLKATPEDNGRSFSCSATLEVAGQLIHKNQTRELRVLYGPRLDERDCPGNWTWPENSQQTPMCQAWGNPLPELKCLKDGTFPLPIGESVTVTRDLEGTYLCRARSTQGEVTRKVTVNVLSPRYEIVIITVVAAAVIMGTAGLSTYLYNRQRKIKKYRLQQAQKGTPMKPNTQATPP
UniProt Q8NBQ5: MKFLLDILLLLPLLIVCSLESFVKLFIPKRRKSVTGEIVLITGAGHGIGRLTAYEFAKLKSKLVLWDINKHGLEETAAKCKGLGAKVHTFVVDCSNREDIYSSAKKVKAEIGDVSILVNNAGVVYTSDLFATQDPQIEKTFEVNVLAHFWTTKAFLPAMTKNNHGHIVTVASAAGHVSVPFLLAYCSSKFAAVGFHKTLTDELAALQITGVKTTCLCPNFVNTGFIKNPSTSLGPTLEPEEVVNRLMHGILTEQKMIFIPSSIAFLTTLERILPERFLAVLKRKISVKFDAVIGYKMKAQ

How the values were obtained:
Experiment in all cases: log2 fold change, soluble protein after heating vs DMSO (PISA); higher = thermal stabilisation; K562 cells, 10 uM, 30 min; active = over 0.2 and 3.5 SD of the protein, either way, in both replicates (recomputed)
bafetinib = compound: Cc1ccc(NC(=O)c2ccc(CN3CC[C@H](N(C)C)C3)c(C(F)(F)F)c2)cc1Nc1nccc(-c2cncnc2)n1 [bafetinib]
Outline: (§1)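 K562 cells at 2×10^6 cells/mL were exposed to 10 μM compound for 30 min, then aliquots were heated for 3 min across 48°C-58°C, pooled, and extracted in PBS containing 0.5% NP-40 at 4°C. The supernatant after 21,000xg for 90 min was taken as soluble protein and measured by TMTpro 16plex LC-MS/MS with channel sums equalised. Thermal stability is reported relative to control samples, with values from duplicates. Fold changes are given on a log2 scale.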

[1] = compound: Cc1cccc(CC(=O)N2CCc3c2ccc(-c2cn(C)c4ncnc(N)c24)c3F)n1
Outline: as §1

nilotinib = compound: Cc1cn(-c2cc(NC(=O)c3ccc(C)c(Nc4nccc(-c5cccnc5)n4)c3)cc(C(F)(F)F)c2)cn1 [nilotinib]
Outline: as §1

[2] = compound: Cc1nc(Nc2n[nH]c3c2CN(C(=O)N[C@H](CN(C)C)c2ccccc2)C3(C)C)c2sccc2n1
Outline: as §1

dasatinib = compound: Cc1nc(Nc2ncc(C(=O)Nc3c(C)cccc3Cl)s2)cc(N2CCN(CCO)CC2)n1 [dasatinib]
Outline: as §1

[3] = compound: Cc1ncc(-c2ccnc(Nc3ccc(S(C)(=O)=O)cc3)n2)n1C(C)C
Outline: as §1

[4] = compound: Cn1cc(-c2ccc3c(c2)CCN3C(=O)Cc2cccc(C(F)(F)F)c2)c2c(N)ncnc21
Outline: as §1

[5] = compound: Cn1cc(-c2ccc3nnc(C(F)(F)c4ccc5ncccc5c4)n3n2)cn1
Outline: as §1

tipifarnib = compound: Cn1cncc1[C@@](N)(c1ccc(Cl)cc1)c1ccc2c(c1)c(-c1cccc(Cl)c1)cc(=O)n2C [tipifarnib]
Outline: as §1

mubritinib = compound: FC(F)(F)c1ccc(/C=C/c2nc(COc3ccc(CCCCn4ccnn4)cc3)co2)cc1 [mubritinib]
Outline: as §1

Measured: log2 fold change

HMGB1 (UniProt P09429)
inactive: bafetinib -0.007 | [1] -0.106 | nilotinib 0.065 | [2] -0.01 | dasatinib 0.022 | [3] 0.012 | [4] 0.002 | [5] -0.046 | tipifarnib -0.019 | mubritinib 0

HNRNPC isoform 2 (UniProt P07910)
inactive: bafetinib 0.159 | [1] -0.228 | nilotinib 0.054 | [2] -0.099 | dasatinib 0.425 | [3] -0.286 | [4] -0.431 | [5] -0.173 | tipifarnib 0.596 | mubritinib -0.268

HNRNPD isoform 4 (UniProt Q14103)
inactive: bafetinib 0.073 | [1] -0.02 | nilotinib -0.058 | [2] 0.109 | dasatinib 0.372 | [3] -0.016 | [4] -0.111 | [5] -0.079 | tipifarnib 0.07 | mubritinib -0.032

HPCAL1 (UniProt P37235)
inactive: bafetinib -0.09 | [1] 0.027 | nilotinib -0.076 | [2] 0.033 | dasatinib -0.031 | [3] -0.028 | [4] -0.011 | [5] 0.053 | tipifarnib -0.032 | mubritinib 0.016

Copied from the listing (2 entries):
HNRNPD isoform 4 (UniProt Q14103)
inactive: bafetinib 0.073 | [1] -0.02 | nilotinib -0.058 | [2] 0.109 | dasatinib 0.372 | [3] -0.016 | [4] -0.111 | [5] -0.079 | tipifarnib 0.07 | mubritinib -0.032

HPCAL1 (UniProt P37235)
inactive: bafetinib -0.09 | [1] 0.027 | nilotinib -0.076 | [2] 0.033 | dasatinib -0.031 | [3] -0.028 | [4] -0.011 | [5] 0.053 | tipifarnib -0.032 | mubritinib 0.016

The list goes on:

HSPA8 (UniProt P11142)
inactive: bafetinib 0.008 | [1] -0.008 | nilotinib 0.081 | [2] -0.001 | dasatinib 0.03 | [3] -0.003 | [4] -0.029 | [5] -0.003 | tipifarnib 0.037 | mubritinib -0.002

HNRNPLL (UniProt Q8WVV9)
inactive: bafetinib -0.035 | [1] 0.069 | nilotinib -0.028 | [2] -0.32 | dasatinib -0.038 | [3] -0.092 | [4] 0.059 | [5] 0.057 | tipifarnib -0.012 | mubritinib 0.028

HMGB2 (UniProt P26583)
inactive: bafetinib 0.011 | [1] -0.072 | nilotinib 0.07 | [2] -0.008 | dasatinib -0.009 | [3] 0.042 | [4] 0.047 | [5] -0.011 | tipifarnib -0.061 | mubritinib -0.013

HSDL2 (UniProt Q6YN16)
inactive: bafetinib 0.048 | [1] 0.029 | nilotinib -0.007 | [2] -0.043 | dasatinib -0.15 | [3] -0.013 | [4] 0.057 | [5] 0.011 | tipifarnib -0.086 | mubritinib -0.043

HMCN1 (UniProt Q96RW7)
inactive: bafetinib -0.149 | [1] 0.223 | nilotinib -0.036 | [2] 0.061 | dasatinib 0.147 | [3] 0.388 | [4] 0.233 | [5] -0.259 | tipifarnib -0.056 | mubritinib -0.538

HP1BP3 (UniProt Q5SSJ5)
inactive: bafetinib 0.017 | [1] -0.082 | nilotinib 0.055 | [2] -0.008 | dasatinib 0.009 | [3] 0.125 | [4] -0.045 | [5] -0.087 | tipifarnib 0.028 | mubritinib 0.026

HSD17B8 (UniProt Q92506)
inactive: bafetinib -0.03 | [1] -0.012 | nilotinib -0.102 | [2] 0.075 | dasatinib 0.008 | [3] -0.051 | [4] 0.135 | [5] 0.046 | tipifarnib 0.015 | mubritinib 0.031

HMGN3 (UniProt Q15651)
inactive: bafetinib -0.087 | [1] -0.017 | nilotinib 0.107 | [2] 0.011 | dasatinib 0.041 | [3] 0.062 | [4] -0.139 | [5] -0.2 | tipifarnib 0.084 | mubritinib -0.107

ICAM1 (UniProt P05362)
inactive: bafetinib 0.031 | [1] -0.024 | nilotinib 0.055 | [2] 0.051 | dasatinib -0.01 | [3] -0.019 | [4] 0.048 | [5] -0.006 | tipifarnib 0.019 | mubritinib 0.046

HSD17B11 (UniProt Q8NBQ5)
inactive: bafetinib 0.044 | [1] 0.026 | nilotinib 0.005 | [2] -0.004 | dasatinib 0 | [3] 0.009 | [4] 0.07 | [5] 0.016 | tipifarnib -0.004 | mubritinib 0.127
